Values quoted from earlier work in patent US5962447A, “Benzoxazines for enhancing synaptic response” (The Regents of the University of California, priority 1998, dated 1999).
“Also recorded” adds a separate entry of the source. At least one structure is not confirmed: it was looked up by name or label, or the drawing left a doubt.

What was measured:
[1] = system: γ-aminobutyric acid (GABA) receptors; conditions: Xenopus oocytes; cited from earlier work
AMPA receptors [2] = conditions: cited from earlier work
[3] = system: kainic acid (KA) receptors; conditions: Xenopus oocytes; cited from earlier work
NMDA receptor = conditions: hippocampus; cited from earlier work
AMPA receptors [4] = conditions: Xenopus oocytes; cited from earlier work
NMDA receptors = conditions: Xenopus oocytes; cited from earlier work
AMPA receptor channel = conditions: cited from earlier work
[5] = infusion into hippocampal slices

COc1ccc(C(=O)N2CCCC2=O)cc1 [aniracetam, N-anisoyl-2-pyrrolidinone]
effect on responses by GABA receptors [1]: without affecting responses | effects mirrored in the field EPSP (AMPA receptors [2]): mirrored in the field EPSP | lasting effects on repeated application (AMPA receptors [2]): no apparent lasting effects | effect on resting membrane properties (AMPA receptors [2]; [5]): without altering resting membrane properties | effect on size of fast synaptic potentials / synaptic responses (AMPA receptors [2]; [5]): substantially increase the size of fast synaptic potentials; also recorded: enhances synaptic responses at several sites in hippocampus | effect on responses by kainic acid (KA) receptors [3]: without affecting responses | effect on NMDA receptor-mediated potentials (NMDA receptor): no effect | effect on AMPA receptor-mediated currents (AMPA receptors [4]): increases currents | effect on responses by NMDA receptors (NMDA receptors): without affecting responses | mean open time of the AMPA receptor channel (AMPA receptor channel): increases the mean open time
